The supplement of paper PMC3353916
± gives the standard deviation of the averaged measurements.

Tested on: Sindbis virus TE/5'2J-GFP
Test: percent infected (GFP+ in RFP+ ISG-expressing cells); higher = more infection (less antiviral activity)
Experimental: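 Confirmatory testing of 87 ISGs. Triplicate wells of BHK/HA-Zeo (control) or BHK/NZAP-Zeo (ZAP) cells were transduced with lentiviruses co-expressing a human ISG plus TagRFP, then infected 48 h later with SINV TE/5'2J-GFP (moi 5). The % GFP+ cells among RFP+ cells was measured by flow cytometry at 8 h post infection. Fluc lentivirus served as control. Three independent experiments.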
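Also: Interferon-defective BHK-21 derivatives, ZAP line overexpressing the rat ZAP N-terminal zinc finger domain fused to Zeocin resistance, GFP scored within live singlet TagRFP+ cells.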

MDPNCSCSPVGSCACAGSCKCKECKCTSCKKSCCSCCPVGCAKCAQGCICKGTSDKCSCCA [MT1X]
Conditions	percent infected [%]
experiment: confirmatory screen 1, BHK/HA-Zeo (control)	96.36 ± 0.55
experiment: confirmatory screen 1, BHK/NZAP-Zeo (ZAP)	76.3 ± 2
experiment: confirmatory screen 2, BHK/HA-Zeo (control)	95.95 ± 0.25
experiment: confirmatory screen 2, BHK/NZAP-Zeo (ZAP)	94.54 ± 0.12
experiment: confirmatory screen 3, BHK/HA-Zeo (control)	92.9 ± 1.6
experiment: confirmatory screen 3, BHK/NZAP-Zeo (ZAP)	92.63 ± 0.36
